# No constants are given. Whether binding was seen depends on the method and setting. Binding seen in cells or lysates may run through a third protein. Some entries that bind do so weakly or less than the wild type. For part of these data: Where a sequence is shown, tags or fusion partners need not be part of it.
# Sequences of proteins named here, by UniProt entry; tags and fusion partners are left off.
# UniProt P78527: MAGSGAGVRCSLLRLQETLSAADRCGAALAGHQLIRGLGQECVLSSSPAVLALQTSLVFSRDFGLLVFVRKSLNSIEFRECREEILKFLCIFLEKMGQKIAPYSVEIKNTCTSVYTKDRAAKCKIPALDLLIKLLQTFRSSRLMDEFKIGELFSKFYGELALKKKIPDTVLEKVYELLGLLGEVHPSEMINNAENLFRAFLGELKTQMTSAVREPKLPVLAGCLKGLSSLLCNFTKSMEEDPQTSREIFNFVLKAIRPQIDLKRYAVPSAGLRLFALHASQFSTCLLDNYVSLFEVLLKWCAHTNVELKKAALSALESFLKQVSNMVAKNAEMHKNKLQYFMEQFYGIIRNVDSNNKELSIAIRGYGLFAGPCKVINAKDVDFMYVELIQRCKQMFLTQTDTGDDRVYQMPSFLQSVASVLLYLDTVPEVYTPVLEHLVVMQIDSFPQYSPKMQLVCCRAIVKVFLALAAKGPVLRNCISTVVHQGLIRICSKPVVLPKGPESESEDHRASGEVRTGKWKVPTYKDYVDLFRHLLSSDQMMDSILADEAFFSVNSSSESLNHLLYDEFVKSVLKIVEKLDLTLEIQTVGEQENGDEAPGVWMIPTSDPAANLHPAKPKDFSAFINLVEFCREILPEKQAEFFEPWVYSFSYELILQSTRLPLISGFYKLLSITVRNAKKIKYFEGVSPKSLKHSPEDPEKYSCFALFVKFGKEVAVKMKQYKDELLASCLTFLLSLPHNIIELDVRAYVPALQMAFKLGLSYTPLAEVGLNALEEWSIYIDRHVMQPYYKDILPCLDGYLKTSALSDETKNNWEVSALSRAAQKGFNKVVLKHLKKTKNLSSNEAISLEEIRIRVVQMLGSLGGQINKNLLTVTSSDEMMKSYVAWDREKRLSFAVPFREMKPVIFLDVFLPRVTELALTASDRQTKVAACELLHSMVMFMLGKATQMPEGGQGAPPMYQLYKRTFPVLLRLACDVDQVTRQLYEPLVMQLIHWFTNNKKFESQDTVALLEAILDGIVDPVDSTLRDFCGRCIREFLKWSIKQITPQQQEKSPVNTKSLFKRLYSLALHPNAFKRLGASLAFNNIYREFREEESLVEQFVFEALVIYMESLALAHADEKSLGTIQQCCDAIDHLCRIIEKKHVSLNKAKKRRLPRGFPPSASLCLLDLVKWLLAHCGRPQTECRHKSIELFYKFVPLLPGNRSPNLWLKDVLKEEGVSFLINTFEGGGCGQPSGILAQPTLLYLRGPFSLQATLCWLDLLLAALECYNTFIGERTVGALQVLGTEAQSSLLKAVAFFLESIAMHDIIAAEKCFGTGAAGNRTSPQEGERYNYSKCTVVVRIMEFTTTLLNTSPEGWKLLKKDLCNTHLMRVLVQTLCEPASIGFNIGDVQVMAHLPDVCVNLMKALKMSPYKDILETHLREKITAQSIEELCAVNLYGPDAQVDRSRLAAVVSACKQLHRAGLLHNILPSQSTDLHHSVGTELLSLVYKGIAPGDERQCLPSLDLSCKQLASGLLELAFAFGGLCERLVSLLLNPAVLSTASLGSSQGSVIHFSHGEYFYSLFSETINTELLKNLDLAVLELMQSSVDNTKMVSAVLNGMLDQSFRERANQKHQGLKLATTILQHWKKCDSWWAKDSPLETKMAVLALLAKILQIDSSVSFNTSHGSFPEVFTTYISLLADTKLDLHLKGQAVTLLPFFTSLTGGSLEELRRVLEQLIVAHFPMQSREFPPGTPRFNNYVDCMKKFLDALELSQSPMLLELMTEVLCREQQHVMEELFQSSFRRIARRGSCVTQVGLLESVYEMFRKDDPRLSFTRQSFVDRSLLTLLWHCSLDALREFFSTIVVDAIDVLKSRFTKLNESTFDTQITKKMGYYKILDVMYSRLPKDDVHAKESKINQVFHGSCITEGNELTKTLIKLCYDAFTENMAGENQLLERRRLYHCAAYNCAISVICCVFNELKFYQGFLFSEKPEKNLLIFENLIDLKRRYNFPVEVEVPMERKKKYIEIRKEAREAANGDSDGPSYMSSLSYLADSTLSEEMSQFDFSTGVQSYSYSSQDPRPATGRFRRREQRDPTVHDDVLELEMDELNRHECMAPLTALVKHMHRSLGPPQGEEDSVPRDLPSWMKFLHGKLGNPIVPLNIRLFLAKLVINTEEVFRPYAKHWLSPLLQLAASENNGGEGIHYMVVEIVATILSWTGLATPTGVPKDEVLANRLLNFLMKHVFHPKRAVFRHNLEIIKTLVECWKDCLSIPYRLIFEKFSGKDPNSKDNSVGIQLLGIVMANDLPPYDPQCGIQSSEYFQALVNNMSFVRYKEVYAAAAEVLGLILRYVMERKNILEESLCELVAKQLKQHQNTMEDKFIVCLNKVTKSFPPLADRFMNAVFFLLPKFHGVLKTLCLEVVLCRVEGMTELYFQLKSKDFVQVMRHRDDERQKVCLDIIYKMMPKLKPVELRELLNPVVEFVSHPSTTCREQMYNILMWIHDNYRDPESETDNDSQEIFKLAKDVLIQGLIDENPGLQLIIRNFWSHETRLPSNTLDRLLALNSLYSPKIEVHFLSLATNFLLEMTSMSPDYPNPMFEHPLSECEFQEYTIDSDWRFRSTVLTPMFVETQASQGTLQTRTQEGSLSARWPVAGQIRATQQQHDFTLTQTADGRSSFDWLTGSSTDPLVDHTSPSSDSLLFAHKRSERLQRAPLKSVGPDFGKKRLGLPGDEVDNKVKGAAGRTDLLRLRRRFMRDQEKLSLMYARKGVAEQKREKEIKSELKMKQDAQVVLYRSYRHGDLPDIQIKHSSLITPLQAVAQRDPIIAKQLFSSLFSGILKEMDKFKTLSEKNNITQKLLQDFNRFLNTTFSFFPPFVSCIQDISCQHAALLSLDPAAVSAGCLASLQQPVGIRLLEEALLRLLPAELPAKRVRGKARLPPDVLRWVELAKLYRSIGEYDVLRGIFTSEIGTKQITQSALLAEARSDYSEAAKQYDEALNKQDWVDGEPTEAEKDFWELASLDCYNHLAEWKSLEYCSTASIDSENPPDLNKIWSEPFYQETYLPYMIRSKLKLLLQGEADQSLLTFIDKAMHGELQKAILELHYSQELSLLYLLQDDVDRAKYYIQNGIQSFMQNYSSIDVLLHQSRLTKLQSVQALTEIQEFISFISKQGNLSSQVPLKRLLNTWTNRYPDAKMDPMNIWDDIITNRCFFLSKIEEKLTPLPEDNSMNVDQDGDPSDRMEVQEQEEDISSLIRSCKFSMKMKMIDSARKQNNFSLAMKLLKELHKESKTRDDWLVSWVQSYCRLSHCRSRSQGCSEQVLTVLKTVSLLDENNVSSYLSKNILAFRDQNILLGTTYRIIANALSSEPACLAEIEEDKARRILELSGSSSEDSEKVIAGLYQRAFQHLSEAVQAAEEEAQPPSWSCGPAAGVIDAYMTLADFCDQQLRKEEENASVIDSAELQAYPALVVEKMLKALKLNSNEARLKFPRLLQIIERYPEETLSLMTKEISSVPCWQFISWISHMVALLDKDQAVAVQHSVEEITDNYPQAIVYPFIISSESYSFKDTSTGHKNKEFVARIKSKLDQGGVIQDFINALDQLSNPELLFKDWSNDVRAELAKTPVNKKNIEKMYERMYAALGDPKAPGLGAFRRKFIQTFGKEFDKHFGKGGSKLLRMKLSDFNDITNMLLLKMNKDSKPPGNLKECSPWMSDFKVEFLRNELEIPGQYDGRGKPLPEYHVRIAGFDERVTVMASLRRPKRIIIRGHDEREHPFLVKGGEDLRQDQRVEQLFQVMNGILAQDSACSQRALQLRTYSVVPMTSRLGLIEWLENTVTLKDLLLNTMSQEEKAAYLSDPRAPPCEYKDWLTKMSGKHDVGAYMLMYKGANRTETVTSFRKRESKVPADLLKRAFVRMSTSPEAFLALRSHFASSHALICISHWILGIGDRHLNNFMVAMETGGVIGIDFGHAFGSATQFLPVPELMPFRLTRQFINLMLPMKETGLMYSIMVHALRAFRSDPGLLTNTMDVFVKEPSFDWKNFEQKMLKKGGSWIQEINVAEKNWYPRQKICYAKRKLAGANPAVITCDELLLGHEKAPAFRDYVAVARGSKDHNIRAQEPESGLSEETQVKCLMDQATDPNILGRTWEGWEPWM
# UniProt Q13426: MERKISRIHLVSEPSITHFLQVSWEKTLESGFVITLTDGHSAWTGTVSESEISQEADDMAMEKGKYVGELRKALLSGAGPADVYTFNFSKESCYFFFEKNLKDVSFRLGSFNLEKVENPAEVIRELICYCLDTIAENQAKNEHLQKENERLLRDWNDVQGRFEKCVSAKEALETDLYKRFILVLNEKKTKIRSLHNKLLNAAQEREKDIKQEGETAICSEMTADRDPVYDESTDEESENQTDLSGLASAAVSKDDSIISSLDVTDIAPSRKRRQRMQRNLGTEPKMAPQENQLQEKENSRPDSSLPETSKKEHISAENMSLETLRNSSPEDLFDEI
# Key:
# FLAG-tagged ZNF281 1-174 = FLAG-tagged ZNF281 1-174 (UniProt Q9Y2X9); test: co-IP; full-length and mutant FLAG-tagged ZNF281 constructs transfected into HEK293T cells and used as bait; endogenous partners detected
# [1] = target: FLAG-tagged full-length ZNF281 (ZNF281 1-895) (UniProt Q9Y2X9); test: as above
# [2] = target: FLAG-tagged full-length ZNF281 (ZNF281 1-895) (UniProt Q9Y2X9); test: co-IP; immunoprecipitation of FLAG-tagged proteins from HEK293T or HEK293 cells; endogenous partners detected; wash steps with increasing salt, 150 to 600 mM NaCl
# [3] = target: ZNF281, endogenous (human (endogenous in HEK293)) (UniProt Q9Y2X9); test: co-IP; at the endogenous level and in different cell lines (Supplementary Fig. S2a, b); bait and cell lines not given
# FLAG-tagged ZNF281 1-379 = FLAG-tagged ZNF281 1-379 (UniProt Q9Y2X9); test: co-IP; full-length and mutant FLAG-tagged ZNF281 constructs transfected into HEK293T cells and used as bait; endogenous partners detected
binding (FLAG-tagged ZNF281 1-174),binding [1],binding [2],binding [3],binding (FLAG-tagged ZNF281 1-379),Substance
binds,binds,binds,binds,,"DNA-PKcs (catalytic subunit of the DNA-PK subcomplex), endogenous (from UniProt P78527 1-4128)"
no binding,binds,binds,binds,binds,"XRCC4 (X-Ray Repair Cross Complementing 4), endogenous (from UniProt Q13426 1-336)"

# Source: paper PMC6976523
